Data published in doi:10.1101/2023.01.10.523203 (bioRxiv, 2023).
Positions count from the first letter of the chain named. Like-named read-outs stand apart in the source and are kept apart here. Results are given in words; binding and its absence hold for the method and conditions named. Some binding calls cover weakened binding; strength is not graded here. Where a sequence is shown, tags or fusion partners need not be part of it.

By UniProt entry, the sequences of proteins in these tests, tags left out.
UniProt Q92963: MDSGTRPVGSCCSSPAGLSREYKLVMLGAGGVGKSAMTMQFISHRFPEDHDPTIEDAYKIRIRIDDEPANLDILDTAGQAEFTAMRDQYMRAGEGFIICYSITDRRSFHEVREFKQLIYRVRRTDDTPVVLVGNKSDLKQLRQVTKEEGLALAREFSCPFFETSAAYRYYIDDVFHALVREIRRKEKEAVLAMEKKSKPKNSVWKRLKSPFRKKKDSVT

What was measured:
Assay in all cases: pull-down
[1] = target: T1, LZTR1^WT recombinant protein (LZTR1-Myc-6xHis) (human) (UniProt Q8N653)
T1 sequence: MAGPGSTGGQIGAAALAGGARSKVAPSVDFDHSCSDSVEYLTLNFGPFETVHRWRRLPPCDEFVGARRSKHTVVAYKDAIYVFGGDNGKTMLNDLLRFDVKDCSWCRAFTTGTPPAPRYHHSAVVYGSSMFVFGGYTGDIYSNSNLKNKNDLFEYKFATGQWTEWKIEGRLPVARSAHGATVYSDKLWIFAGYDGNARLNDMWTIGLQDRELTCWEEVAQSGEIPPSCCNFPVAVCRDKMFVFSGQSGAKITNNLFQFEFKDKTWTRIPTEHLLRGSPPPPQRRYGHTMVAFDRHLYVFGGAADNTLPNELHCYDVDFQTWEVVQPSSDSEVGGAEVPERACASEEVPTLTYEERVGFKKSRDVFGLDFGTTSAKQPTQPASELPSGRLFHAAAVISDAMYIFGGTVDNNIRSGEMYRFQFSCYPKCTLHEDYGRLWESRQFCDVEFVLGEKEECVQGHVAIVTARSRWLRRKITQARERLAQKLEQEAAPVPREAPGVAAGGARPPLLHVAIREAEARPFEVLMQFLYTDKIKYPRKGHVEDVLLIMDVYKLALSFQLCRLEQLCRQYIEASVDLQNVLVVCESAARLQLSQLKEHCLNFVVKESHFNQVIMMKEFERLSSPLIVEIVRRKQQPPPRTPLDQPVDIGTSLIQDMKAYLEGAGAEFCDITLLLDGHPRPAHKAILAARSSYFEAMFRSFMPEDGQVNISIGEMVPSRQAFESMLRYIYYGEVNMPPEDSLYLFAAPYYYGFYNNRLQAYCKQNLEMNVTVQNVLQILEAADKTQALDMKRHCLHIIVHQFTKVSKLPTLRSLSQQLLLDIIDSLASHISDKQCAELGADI

[2] = target: T2, LZTR1^L580P recombinant protein (LZTR1-Myc-6xHis with p.L580P) (human) (UniProt Q8N653)
T2 sequence: T1 sequence with L580P

[3] = target: T1, LZTR1^WT recombinant protein (LZTR1-Myc-6xHis) (human); remark: listed apart in the source
[4] = target: T2, LZTR1^L580P recombinant protein (LZTR1-Myc-6xHis with p.L580P) (human); remark: listed apart in the source

Measured: binding

GST-fused RIT1 (from UniProt Q92963 1-219)
binds: all assays above
